{"sequences": {"note": "By UniProt entry, the sequences of proteins in these tests, tags left out. Where a name states a change or a piece, a line headed by the entry shows the natural chain unless it says otherwise.", "UniProt Q12851": "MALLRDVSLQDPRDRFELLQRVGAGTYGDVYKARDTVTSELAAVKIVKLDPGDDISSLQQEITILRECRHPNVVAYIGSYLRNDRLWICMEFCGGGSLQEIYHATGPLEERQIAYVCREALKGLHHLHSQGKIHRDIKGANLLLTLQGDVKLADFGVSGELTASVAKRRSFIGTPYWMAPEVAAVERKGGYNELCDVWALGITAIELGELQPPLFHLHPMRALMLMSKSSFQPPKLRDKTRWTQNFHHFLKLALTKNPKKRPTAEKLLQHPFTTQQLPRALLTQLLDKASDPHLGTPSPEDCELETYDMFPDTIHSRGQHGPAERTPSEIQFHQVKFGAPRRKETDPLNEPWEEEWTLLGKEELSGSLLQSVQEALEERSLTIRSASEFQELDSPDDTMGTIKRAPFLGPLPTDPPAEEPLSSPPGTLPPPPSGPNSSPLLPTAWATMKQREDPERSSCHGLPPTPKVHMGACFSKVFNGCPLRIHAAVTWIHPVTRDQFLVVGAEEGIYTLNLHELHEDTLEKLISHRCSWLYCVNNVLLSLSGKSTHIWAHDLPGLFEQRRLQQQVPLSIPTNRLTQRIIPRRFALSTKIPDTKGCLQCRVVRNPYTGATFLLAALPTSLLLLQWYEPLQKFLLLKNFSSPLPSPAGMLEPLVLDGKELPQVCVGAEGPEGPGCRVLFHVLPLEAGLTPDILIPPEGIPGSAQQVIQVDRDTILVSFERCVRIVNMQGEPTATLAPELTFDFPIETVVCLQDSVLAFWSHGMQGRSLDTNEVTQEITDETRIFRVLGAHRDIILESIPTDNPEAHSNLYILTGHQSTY"}, "source": "the supplement of paper PMC12823440", "about": "“Inhibitors supercharge kinase turnover through native proteolytic circuits” (Nature, 2025)", "note": "Where a name gives a salt, the structure may show the parent alone. The list shows a part of the results. The calls rarely recur for the same compound in another form.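 Kinases, fused to nanoluciferase, were expressed in K562 cells; luminescence was measured every 4 h from 2 to 18 h as percent of control (DMSO = 100%, positive control = 0%). A time point is decreased if signal falls significantly (2 sigma). Hits were called by the authors by a rule that is not shown; the count of time points alone does not decide it.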", "data": [{"target": "MAP2K2 (UniProt P36507)", "assay": "kinase-Nluc reporter destabilization hit call (1 = scored as downregulated) (binary); higher = compound decreases kinase abundance", "settings": "10 µM; K562; 2-18 h", "values": [{"compound": "COc1nccc(-c2c(-c3ccc(F)cc3)ncn2C2CCNCC2)n1", "kinase-Nluc reporter destabilization hit call": "inactive: 0"}, {"compound": "COc1ccc(-c2c[nH]c3nccc(-c4ccsc4)c23)c(OC)c1", "kinase-Nluc reporter destabilization hit call": "inactive: 0"}, {"compound": "C[C@@]1(C(=O)Nc2ccc(F)nc2)CCCN1c1nc(Nc2cc(C3CC3)n[nH]2)c2cccn2n1", "kinase-Nluc reporter destabilization hit call": "inactive: 0"}, {"compound": "Cc1ccc(Nc2nccc(N(C)c3ccc4c(C)n(C)nc4c3)n2)cc1S(N)(=O)=O", "note": "[Pazopanib]", "kinase-Nluc reporter destabilization hit call": "inactive: 0"}, {"compound": "Cc1cc2c(F)c(Oc3ncnn4cc(OC[C@@H](C)O)c(C)c34)ccc2[nH]1", "note": "[Brivanib]", "kinase-Nluc reporter destabilization hit call": "inactive: 0"}, {"compound": "C=CC(=O)Nc1cc2c(Nc3ccc(F)c(Cl)c3)ncnc2cc1OCCCN1CCOCC1", "note": "[Canertinib]", "kinase-Nluc reporter destabilization hit call": "inactive: 0"}, {"compound": "Cc1ccc(Nc2nccc(N(C)c3ccc4c(C)n(C)nc4c3)n2)cc1S(N)(=O)=O", "note": "[Pazopanib (Hydrochloride)]", "kinase-Nluc reporter destabilization hit call": "inactive: 0"}, {"compound": "CC(C)(C)n1nc(-c2ccc(Cl)cc2)c2c(N)ncnc21", "kinase-Nluc reporter destabilization hit call": "inactive: 0"}, {"compound": "COc1cc2ncnc(Nc3ccc(F)c(Cl)c3)c2cc1OCCCN1CCOCC1", "note": "[Gefitinib]", "kinase-Nluc reporter destabilization hit call": "inactive: 0"}, {"compound": "O=C(Nc1cccc(Cl)c1)Nc1ncc(CCNc2ncnc3ccsc23)s1", "note": "[SNS-314 (mesylate)]", "kinase-Nluc reporter destabilization hit call": "inactive: 0"}, {"compound": "CC[C@@H]1C(=O)N(C)c2cnc(Nc3ccc(C(=O)NC4CCN(C)CC4)cc3OC)nc2N1C1CCCC1", "kinase-Nluc reporter destabilization hit call": "inactive: 0"}, {"compound": "CC#CC(=O)N1CCC[C@H]1c1nc(-c2ccc(C(=O)Nc3ccccn3)cc2)c2c(N)nccn12", "note": "[Acalabrutinib]", "kinase-Nluc reporter destabilization hit call": "inactive: 0"}, {"compound": "O=S(=O)(c1cccc2c(O)nccc12)N1CCCNCC1", "note": "[Hydroxyfasudil (hydrochloride)]", "kinase-Nluc reporter destabilization hit call": "inactive: 0"}, {"compound": "O=C1Cc2c([nH]c3ccc(Br)cc23)-c2ccccc2N1", "note": "[Kenpaullone]", "kinase-Nluc reporter destabilization hit call": "inactive: 0"}, {"compound": "O=S(=O)(c1cccc2c(O)nccc12)N1CCCNCC1", "note": "[Hydroxyfasudil]", "kinase-Nluc reporter destabilization hit call": "inactive: 0"}, {"compound": "CC(C)N(CCC(=O)c1ccc2ccccc2c1)Cc1ccccc1", "kinase-Nluc reporter destabilization hit call": "inactive: 0"}, {"compound": "Cc1cc2ncnn2cc1Nc1ncc2c(n1)n(C1CCOCC1)c(=O)n2C", "kinase-Nluc reporter destabilization hit call": "inactive: 0"}, {"compound": "O=C(NCCCNc1nc(Nc2cccc(CN3CCOCC3)c2)ncc1C1CC1)C1CCC1", "kinase-Nluc reporter destabilization hit call": "inactive: 0"}, {"compound": "CNC(=O)c1cc(Oc2ccc(NC(=O)Nc3ccc(Cl)c(C(F)(F)F)c3)cc2)ccn1", "note": "[Sorafenib (Tosylate)]", "kinase-Nluc reporter destabilization hit call": "inactive: 0"}]}, {"target": "MAP4K2 (UniProt Q12851)", "assay": "kinase-Nluc reporter destabilization hit call (1 = scored as downregulated) (binary); higher = compound decreases kinase abundance", "settings": "2.5 µM; K562; 2-18 h", "values": [{"compound": "Nc1nc(Nc2ccc(S(N)(=O)=O)cc2)nn1C(=O)c1c(F)cccc1F", "kinase-Nluc reporter destabilization hit call": "inactive: 0"}, {"compound": "CCOc1cc2ncc(C#N)c(Nc3ccc(F)c(Cl)c3)c2cc1NC(=O)/C=C/CN(C)C", "note": "[Pelitinib]", "kinase-Nluc reporter destabilization hit call": "inactive: 0"}, {"compound": "Nc1ncnc2c1c(-c1cnc3[nH]ccc3c1)nn2C1CCCC1", "kinase-Nluc reporter destabilization hit call": "inactive: 0"}, {"compound": "CCN(CC)CCNC(=O)c1c(C)[nH]c(/C=C2\\C(=O)Nc3ccc(F)cc32)c1C", "note": "[Sunitinib]", "kinase-Nluc reporter destabilization hit call": "inactive: 0"}, {"compound": "C=CC(=O)Nc1cc2c(Nc3ccc(F)c(Cl)c3)ncnc2cc1OCCCN1CCOCC1", "note": "[Canertinib (dihydrochloride)]", "kinase-Nluc reporter destabilization hit call": "inactive: 0"}, {"compound": "Cc1[nH]c(/C=C2\\C(=O)Nc3ccc(F)cc32)c(C)c1C(=O)NC[C@H](O)CN1CCOCC1", "kinase-Nluc reporter destabilization hit call": "inactive: 0"}, {"compound": "Cc1cc(Nc2cc(N3CCN(C)CC3)nc(/C=C/c3ccccc3)n2)n[nH]1", "note": "[ENMD-2076 (Tartrate)]", "kinase-Nluc reporter destabilization hit call": "inactive: 0"}, {"compound": "O=C(Nc1cccc(Nc2nccc(Nc3cccc(C(F)(F)F)c3)n2)c1)C1CC1", "note": "[Aurora kinase inhibitor-3]", "kinase-Nluc reporter destabilization hit call": "inactive: 0"}, {"compound": "CN1CCN(c2ccc3nc(-c4c(N)c5c(F)cccc5[nH]c4=O)[nH]c3c2)CC1", "note": "[Dovitinib]", "kinase-Nluc reporter destabilization hit call": "inactive: 0"}, {"compound": "O=C1NCCc2[nH]c(-c3ccncc3)cc21", "kinase-Nluc reporter destabilization hit call": "inactive: 0"}, {"compound": "CC1(C)CNc2cc(NC(=O)c3cccnc3NCc3ccncc3)ccc21", "note": "[Motesanib (Diphosphate)]", "kinase-Nluc reporter destabilization hit call": "inactive: 0"}, {"compound": "CC(=O)c1c(C)c2cnc(Nc3ccc(N4CCN(C(=O)CCCCCC(=O)N[C@H](C(=O)N5C[C@H](O)C[C@H]5C(=O)NCc5ccc(-c6scnc6C)cc5)C(C)(C)C)CC4)cn3)nc2n(C2CCCC2)c1=O", "kinase-Nluc reporter destabilization hit call": "inactive: 0"}, {"compound": "CC(C)n1nc(-c2cc3cc(O)ccc3[nH]2)c2c(N)ncnc21", "note": "[Torkinib]", "kinase-Nluc reporter destabilization hit call": "inactive: 0"}, {"compound": "Cc1nc(Nc2ncc(C(=O)Nc3c(C)cccc3Cl)s2)cc(N2CCN(CCO)CC2)n1", "note": "[Dasatinib]", "kinase-Nluc reporter destabilization hit call": "inactive: 0"}, {"compound": "CC1(C)C(=O)N([C@H]2CCc3c(O)cccc32)c2nc(Nc3cccc(CN4CCCC4)c3)ncc21", "kinase-Nluc reporter destabilization hit call": "inactive: 0"}, {"compound": "CNC(=O)c1cc(Oc2ccc(NC(=O)Nc3ccc(Cl)c(C(F)(F)F)c3)cc2)ccn1", "note": "[Sorafenib]", "kinase-Nluc reporter destabilization hit call": "inactive: 0"}, {"compound": "CN1CCN(c2ccc3nc(-c4c(N)c5c(F)cccc5[nH]c4=O)[nH]c3c2)CC1", "note": "[Dovitinib (lactate)]", "kinase-Nluc reporter destabilization hit call": "inactive: 0"}, {"compound": "CC1(C)CNc2cc(NC(=O)c3cccnc3NCc3ccncc3)ccc21", "note": "[Motesanib]", "kinase-Nluc reporter destabilization hit call": "inactive: 0"}, {"compound": "Cc1cc(Nc2cc(N3CCN(C)CC3)nc(/C=C/c3ccccc3)n2)n[nH]1", "kinase-Nluc reporter destabilization hit call": "inactive: 0"}]}]}
